Experimental data: PubChem BioAssay AID1159596 (NIAID, 2016)

- Assay: 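Genes whose silencing alters the TNF reporter response of macrophage-like cells to peptidoglycan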 (primary screen)
- Cells: human THP1 B5 monocytic reporter cells made macrophage-like with PMA
- Knock-down reagent: single siRNA against human genes
- Time to read-out: assayed 48 to 72 hours after siRNA transfection; peptidoglycan stimulation lasted 4 hours
- Conditions: Staphylococcus aureus peptidoglycan for 4 hours; dose not given
- Measured: 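Mean over replicate screens of a robust z per siRNA from the dual luciferase TNF promoter reporter after 4 h peptidoglycan, median/MAD normalised, relative to negative controls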
- Reading the numbers: TNF reporter z-score: higher = stronger TNF promoter reporter response to peptidoglycan
- Call rule: In these data the active calls have TNF reporter z-score, replicate mean at about -1.5 or lower, or at about 1.5 or higher
- Calls: active = reporter shifted beyond cut (either direction); inactive = reporter near control level
The deposit covers 756 reagents; shown is an unselected part. 143 of all reagents (19%) were called active. 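Active means the reporter moved past about ±1.5 in either direction; scores are per single siRNA, not per gene; peptidoglycan dose not given.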 Entries without a mark were called inactive. The numbers tell different reagents against one gene apart. Not stated in the record: the amount of reagent.

gene knocked down	siRNA no.	TNF reporter z-score, replicate mean
PIK3R3	1	-0.142
PIK3R3	2	-0.442
PIK3R3	3	-0.496
PIK3R3	4	-2.01 (active)
PIK3R3	5	-0.466
PIK3R3	6	-3.14 (active)
CD14	1	0.492
CD14	2	-0.181
CD14	3	1.17
CD14	4	-0.494
CD14	5	-0.981
CD14	6	0.407
MAPK13	1	-2.09 (active)
MAPK13	2	-1.26
MAPK13	3	-1.3
MAPK13	4	-1.82 (active)
MAPK13	5	-0.627
MAPK13	6	0.309
TRAF3	1	-1.06
TRAF3	2	-0.992
TRAF3	3	-0.658
TRAF3	4	-1.06
TRAF3	5	-1.41
TRAF3	6	0.507
NFKBIE	1	-1.93 (active)
NFKBIE	2	-1.66 (active)
NFKBIE	3	-0.889
NFKBIE	4	-2.95 (active)
NFKBIE	5	-1.34
NFKBIE	6	-3.43 (active)
RELA	1	-1.34
RELA	2	-1.11
RELA	3	-1.36
RELA	4	-0.824
RELA	5	-0.82
RELA	6	-3.42 (active)
IL12A	1	0.0108
IL12A	2	-0.542
IL12A	3	0.0278
IL12A	4	0.224
IL12A	5	-1.38
IL12A	6	-0.516
DAB2IP	1	-1
DAB2IP	2	-1.18
DAB2IP	3	1.13
DAB2IP	4	-1.96 (active)
DAB2IP	5	-0.843
DAB2IP	6	-0.563

Ordered by “TNF reporter z-score, replicate mean” (descending): some entries from above
gene knocked down	siRNA no.	TNF reporter z-score, replicate mean
TRAF3	6	0.507
NFKBIE	3	-0.889
TRAF3	4	-1.06
NFKBIE	5	-1.34
TRAF3	5	-1.41
NFKBIE	2	-1.66 (active)
NFKBIE	1	-1.93 (active)
NFKBIE	4	-2.95 (active)
